Measured values reported in paper doi:10.1101/2023.02.18.529092.
No constants are given. Whether binding was seen depends on the method and setting. For some assays here: In cells and extracts the contact can be indirect. Some results given as binding are weak or reduced against the parent protein; the word gives no strength. For some assays here: Tags and fused reporters may be left off the sequences shown.

The chains behind the UniProt entries cited, without tags or fusion partners.
UniProt P08753: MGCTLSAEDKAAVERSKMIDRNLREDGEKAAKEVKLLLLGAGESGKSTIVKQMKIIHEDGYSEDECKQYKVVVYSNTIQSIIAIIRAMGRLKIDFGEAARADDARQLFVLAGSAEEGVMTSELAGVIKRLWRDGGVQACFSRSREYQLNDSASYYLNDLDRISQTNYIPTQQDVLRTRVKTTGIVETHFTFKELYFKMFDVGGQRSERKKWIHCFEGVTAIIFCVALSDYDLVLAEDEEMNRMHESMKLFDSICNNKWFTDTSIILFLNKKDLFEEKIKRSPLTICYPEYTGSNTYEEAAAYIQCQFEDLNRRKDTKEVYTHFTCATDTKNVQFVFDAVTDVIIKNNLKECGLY

Assays:
GST-GIV (aa 1671-1755) = molecular target: T1, GST-GIV (aa 1671-1755) (UniProt Q3V6T2); assay: pull-down
T1 sequence: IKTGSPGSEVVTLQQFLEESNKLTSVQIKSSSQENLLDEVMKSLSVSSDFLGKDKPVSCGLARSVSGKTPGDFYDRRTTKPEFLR

[1] = molecular target: Gαi3 in membranes isolated from HEK293T cells (BRET assay) (UniProt P08753); assay: FRET or BRET

Gαi3 (purified; His-Gαi3 in the pull-down) (from UniProt P08753 1-354)
binding (GST-GIV (aa 1671-1755)): binds

AEEFFELISKAQSNRADDQRGLL (peptide, UniProt O14924 1187-1209) [R12 GL (GoLoco peptide derived from RGS12)]
binding [1]: binds
